Reference: paper PMC11204552
No constants are given. Whether binding was seen depends on the method and setting. Binding can be weak; no strength is given.

Biological target: T1, CfAtg8 (Colletotrichum fructicola)
T1 sequence: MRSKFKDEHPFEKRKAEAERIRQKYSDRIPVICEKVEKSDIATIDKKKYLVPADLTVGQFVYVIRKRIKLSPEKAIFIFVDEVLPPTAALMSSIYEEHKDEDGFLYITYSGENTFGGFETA
Assay: two-hybrid; pGADT7 (prey) and pGBKT7 (bait) fusions co-transformed into yeast strain AH109; selected on SD-Leu-Trp, then growth on SD-His/-Leu/-Trp medium

- binding: binds
Substance: CfAtg4 (Colletotrichum fructicola) (enzyme)
